Results: paper PMC8980529
Results are given in words; binding and its absence hold for the method and conditions named. Some results given as binding are weak or reduced against the parent protein; the word gives no strength.

Chains of the proteins cited; added tags and fusions are not shown. Lines headed by an entry give the natural chain unless they say otherwise; changes in a name come on top. Residues count along the entry.
UniProt Q03591, residues 19-330: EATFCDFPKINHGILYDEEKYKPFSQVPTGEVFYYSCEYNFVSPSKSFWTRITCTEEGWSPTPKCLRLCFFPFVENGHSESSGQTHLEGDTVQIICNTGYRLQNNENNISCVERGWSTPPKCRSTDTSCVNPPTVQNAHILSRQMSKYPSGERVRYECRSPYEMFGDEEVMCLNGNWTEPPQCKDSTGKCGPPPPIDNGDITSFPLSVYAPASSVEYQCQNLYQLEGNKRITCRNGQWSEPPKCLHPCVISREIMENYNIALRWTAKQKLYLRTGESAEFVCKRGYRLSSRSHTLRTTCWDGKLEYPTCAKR
UniProt Q02985, residues 19-330: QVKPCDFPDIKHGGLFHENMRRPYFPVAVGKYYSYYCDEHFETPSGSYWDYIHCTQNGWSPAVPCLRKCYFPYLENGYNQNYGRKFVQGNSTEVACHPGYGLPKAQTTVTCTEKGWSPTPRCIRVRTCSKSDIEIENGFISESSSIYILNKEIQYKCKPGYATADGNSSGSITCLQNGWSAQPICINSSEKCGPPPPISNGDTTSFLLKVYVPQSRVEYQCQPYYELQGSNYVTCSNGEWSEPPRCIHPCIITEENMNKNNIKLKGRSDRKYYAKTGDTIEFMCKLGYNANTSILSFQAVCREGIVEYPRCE
UniProt P36980, residues 19-270: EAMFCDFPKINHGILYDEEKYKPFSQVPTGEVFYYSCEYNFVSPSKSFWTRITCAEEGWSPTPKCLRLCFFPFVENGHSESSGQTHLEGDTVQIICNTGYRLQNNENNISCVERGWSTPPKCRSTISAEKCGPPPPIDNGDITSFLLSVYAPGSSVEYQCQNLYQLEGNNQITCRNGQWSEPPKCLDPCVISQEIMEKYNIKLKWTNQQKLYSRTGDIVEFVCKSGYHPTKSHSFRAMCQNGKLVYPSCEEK
UniProt P27918, residues 28-469: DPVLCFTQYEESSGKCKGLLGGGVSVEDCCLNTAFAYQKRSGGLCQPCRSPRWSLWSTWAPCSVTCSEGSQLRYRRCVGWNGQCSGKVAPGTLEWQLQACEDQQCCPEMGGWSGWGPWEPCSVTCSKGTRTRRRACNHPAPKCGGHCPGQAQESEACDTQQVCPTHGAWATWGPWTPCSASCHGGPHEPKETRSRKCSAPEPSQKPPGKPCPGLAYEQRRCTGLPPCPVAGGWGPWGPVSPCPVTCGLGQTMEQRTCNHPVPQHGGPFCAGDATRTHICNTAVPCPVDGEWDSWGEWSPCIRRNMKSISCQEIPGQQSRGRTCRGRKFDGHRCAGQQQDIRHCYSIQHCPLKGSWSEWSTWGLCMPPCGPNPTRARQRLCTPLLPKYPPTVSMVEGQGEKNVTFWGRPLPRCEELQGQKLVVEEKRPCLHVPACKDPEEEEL
UniProt P01024: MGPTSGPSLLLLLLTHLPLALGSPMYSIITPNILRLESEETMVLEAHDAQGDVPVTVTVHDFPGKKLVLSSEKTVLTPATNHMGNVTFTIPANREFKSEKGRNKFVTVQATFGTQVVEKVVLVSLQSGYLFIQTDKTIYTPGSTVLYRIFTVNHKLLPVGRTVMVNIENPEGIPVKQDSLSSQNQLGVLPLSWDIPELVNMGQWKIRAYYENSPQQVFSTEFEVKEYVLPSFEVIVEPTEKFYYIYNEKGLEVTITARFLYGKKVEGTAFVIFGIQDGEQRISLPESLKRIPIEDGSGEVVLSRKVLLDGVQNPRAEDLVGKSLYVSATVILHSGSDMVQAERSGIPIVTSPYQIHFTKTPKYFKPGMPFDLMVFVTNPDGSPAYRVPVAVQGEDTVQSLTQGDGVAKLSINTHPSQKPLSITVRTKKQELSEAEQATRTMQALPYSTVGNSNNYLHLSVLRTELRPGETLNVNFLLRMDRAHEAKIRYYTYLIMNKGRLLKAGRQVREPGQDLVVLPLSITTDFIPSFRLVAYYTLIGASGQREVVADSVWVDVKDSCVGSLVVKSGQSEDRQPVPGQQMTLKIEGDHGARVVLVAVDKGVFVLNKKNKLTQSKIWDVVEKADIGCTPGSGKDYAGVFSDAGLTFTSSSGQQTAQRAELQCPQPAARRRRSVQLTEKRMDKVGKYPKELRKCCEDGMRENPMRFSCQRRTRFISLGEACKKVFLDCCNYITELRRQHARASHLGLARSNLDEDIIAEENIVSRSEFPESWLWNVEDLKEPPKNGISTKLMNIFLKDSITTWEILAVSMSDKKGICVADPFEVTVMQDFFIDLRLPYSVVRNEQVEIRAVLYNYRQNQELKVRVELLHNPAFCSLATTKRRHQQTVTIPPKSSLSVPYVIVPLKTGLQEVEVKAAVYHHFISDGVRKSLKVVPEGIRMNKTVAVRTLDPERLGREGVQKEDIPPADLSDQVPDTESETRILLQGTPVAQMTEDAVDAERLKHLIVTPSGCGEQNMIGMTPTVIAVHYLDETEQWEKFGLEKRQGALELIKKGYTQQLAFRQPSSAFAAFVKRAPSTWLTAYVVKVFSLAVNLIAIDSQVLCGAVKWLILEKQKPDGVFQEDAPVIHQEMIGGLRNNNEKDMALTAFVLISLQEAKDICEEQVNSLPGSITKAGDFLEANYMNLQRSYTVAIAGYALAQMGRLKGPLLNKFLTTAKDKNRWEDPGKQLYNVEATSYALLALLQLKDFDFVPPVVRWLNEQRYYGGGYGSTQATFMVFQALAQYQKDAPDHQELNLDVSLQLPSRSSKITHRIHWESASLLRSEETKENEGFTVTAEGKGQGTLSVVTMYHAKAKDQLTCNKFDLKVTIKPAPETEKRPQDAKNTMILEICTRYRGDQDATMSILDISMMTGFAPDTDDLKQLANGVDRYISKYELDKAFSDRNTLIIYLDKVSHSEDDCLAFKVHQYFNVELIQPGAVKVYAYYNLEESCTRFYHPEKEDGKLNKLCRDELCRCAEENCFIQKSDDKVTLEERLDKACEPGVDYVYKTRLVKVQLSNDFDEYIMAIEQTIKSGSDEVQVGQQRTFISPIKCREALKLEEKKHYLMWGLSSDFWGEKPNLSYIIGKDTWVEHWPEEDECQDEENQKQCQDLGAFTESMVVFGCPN
UniProt P08603, residues 19-1231: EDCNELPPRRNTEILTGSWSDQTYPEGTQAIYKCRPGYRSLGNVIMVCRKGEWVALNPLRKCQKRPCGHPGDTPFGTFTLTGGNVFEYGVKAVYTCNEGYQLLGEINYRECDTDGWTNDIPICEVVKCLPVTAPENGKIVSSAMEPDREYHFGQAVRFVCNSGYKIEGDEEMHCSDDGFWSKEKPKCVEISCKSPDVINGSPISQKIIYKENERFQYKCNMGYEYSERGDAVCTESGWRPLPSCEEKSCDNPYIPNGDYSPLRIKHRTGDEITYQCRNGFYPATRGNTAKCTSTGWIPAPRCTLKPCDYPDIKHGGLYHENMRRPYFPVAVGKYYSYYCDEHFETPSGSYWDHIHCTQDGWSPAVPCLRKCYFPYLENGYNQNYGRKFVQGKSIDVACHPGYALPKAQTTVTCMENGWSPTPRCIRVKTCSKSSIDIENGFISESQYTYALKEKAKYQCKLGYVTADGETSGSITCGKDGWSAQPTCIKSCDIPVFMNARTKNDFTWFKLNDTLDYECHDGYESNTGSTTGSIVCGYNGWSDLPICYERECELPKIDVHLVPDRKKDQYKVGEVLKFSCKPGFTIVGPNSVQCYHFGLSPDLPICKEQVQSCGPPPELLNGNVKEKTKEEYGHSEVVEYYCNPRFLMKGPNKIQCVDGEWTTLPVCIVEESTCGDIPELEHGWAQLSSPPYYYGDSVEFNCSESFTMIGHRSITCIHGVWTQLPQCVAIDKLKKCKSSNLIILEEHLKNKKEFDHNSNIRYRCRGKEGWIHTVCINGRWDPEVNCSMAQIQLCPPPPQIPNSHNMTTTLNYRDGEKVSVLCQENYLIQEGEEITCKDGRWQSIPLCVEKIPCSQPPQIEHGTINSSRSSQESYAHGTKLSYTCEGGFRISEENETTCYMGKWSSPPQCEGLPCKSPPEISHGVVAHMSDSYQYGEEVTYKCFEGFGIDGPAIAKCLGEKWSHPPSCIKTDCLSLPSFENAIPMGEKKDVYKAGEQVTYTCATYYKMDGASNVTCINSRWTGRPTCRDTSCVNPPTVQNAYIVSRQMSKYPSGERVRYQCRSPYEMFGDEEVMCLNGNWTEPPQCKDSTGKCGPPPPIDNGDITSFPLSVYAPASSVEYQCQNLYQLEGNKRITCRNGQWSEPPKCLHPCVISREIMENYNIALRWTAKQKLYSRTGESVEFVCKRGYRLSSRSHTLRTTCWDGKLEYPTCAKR

Tests used:
[1] = target: T1, Recombinant human factor H-related protein 5 (human) (UniProt Q9BXR6); test: ELISA; FHR proteins, FHR5 fragments and C3b immobilised at 5 µg/ml in DPBS with Mg2+ and Ca2+; 20 µg/ml of the properdin forms added at 20°C for 1 hr; detected with anti-properdin mAb A235; both purified
T1 sequence: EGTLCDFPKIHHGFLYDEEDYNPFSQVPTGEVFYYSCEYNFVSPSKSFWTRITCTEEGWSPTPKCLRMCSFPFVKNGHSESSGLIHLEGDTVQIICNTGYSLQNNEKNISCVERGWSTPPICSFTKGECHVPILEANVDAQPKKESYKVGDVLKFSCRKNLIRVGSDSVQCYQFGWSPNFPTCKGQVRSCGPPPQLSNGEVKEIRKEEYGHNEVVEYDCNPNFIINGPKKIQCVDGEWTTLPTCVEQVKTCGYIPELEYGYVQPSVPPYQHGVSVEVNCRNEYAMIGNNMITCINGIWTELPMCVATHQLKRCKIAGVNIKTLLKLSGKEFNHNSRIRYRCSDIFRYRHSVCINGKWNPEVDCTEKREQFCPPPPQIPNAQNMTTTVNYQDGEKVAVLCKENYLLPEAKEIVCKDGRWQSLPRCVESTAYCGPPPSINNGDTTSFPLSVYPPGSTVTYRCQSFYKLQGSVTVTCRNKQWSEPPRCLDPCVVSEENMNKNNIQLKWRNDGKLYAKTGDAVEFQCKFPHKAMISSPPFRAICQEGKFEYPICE

[2] = target: T1, Recombinant human factor H-related protein 5 (human); test: ELISA; FHR5, CCPs 1-4, CCPs 3-7, CCPs 8-9 and HSA immobilised at 5 µg/ml, blocked with 4% BSA; 20 µg/ml C3b, iC3b, C3c or 10 µg/ml C3d added; detected with anti-human C3 or anti-human C3d; both purified
Osteoadherin [3] = target: T2, Osteoadherin (UniProt Q99983); test: peptide or protein array; competition: printed ECM proteins incubated with 25 µg/ml FH with or without FHR1 (5, 25, 50 µg/ml) or FHR5 (0.5, 5, 20 µg/ml); bound FH detected with mAb A254 that does not cross-react with FHR1 and FHR5; both purified
T2 sequence: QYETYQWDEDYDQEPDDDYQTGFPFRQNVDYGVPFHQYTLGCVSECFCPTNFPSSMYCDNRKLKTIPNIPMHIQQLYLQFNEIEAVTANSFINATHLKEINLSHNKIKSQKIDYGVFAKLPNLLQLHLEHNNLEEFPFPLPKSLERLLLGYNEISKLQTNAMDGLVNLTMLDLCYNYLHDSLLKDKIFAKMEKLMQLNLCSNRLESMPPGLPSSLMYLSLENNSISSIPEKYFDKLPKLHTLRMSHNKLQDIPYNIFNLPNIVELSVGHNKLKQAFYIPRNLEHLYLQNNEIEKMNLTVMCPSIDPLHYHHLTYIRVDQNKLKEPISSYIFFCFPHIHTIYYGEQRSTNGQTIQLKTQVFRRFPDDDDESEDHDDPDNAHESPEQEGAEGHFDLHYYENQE

[4] = target: T3, Proline/arginine-rich end leucine-rich repeat protein (UniProt P51888); test: as above
T3 sequence: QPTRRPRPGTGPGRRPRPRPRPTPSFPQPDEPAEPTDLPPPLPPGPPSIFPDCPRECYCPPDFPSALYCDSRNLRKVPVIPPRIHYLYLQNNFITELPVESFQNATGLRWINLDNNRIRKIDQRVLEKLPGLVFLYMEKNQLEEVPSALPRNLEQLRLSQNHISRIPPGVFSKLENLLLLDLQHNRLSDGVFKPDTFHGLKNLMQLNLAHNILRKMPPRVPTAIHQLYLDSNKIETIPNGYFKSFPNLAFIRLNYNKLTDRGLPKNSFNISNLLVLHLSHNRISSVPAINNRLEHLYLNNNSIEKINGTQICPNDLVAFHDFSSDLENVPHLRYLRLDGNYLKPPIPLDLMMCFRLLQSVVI

Fibromodulin [5] = target: T4, Fibromodulin (UniProt Q06828); test: as above
T4 sequence: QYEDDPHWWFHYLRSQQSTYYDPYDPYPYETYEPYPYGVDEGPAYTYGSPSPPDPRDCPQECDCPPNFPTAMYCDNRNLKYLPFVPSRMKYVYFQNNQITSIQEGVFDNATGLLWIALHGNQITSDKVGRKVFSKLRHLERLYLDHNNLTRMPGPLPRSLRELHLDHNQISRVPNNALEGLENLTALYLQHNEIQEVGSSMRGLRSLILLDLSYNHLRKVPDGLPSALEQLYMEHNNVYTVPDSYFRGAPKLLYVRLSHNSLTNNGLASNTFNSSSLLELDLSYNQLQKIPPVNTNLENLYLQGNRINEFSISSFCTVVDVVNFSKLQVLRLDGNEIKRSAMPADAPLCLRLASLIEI

Osteoadherin [6] = target: T2, Osteoadherin; test: ELISA; competition: immobilised ECM proteins (10 µg/ml) incubated with 50 µg/ml FH in the presence or absence of 20 µg/ml FHR5; bound FH detected with mAb A254; both purified
[7] = target: T3, Proline/arginine-rich end leucine-rich repeat protein; test: as above
Fibromodulin [8] = target: T4, Fibromodulin; test: as above
[9] = target: Recombinant human factor H-related protein 1 (human) (UniProt Q03591); test: ELISA; FHR proteins, FHR5 fragments and C3b immobilised at 5 µg/ml in DPBS with Mg2+ and Ca2+; 20 µg/ml of the properdin forms added at 20°C for 1 hr; detected with anti-properdin mAb A235; both purified
[10] = target: Recombinant human FHR3 (human) (UniProt Q02985); test: as above
[11] = target: Recombinant human FHR2 (human) (UniProt P36980); test: as above
Osteoadherin [12] = target: T2, Osteoadherin; test: peptide or protein array; ECM proteins (0.5 mg/ml) printed on nitrocellulose-covered slides in triplicates, blocked with 4% BSA; incubated with FHR1 (5, 25, 50 µg/ml) or FHR5 (0.5, 5, 20 µg/ml); detected with goat anti-human FH or anti-FHR5 and Alexa-647 anti-goat IgG; signal above gelatin taken as binding; both purified
[13] = target: T3, Proline/arginine-rich end leucine-rich repeat protein; test: as above
Osteoadherin [14] = target: T2, Osteoadherin; test: ELISA; laminin, fibromodulin, osteoadherin, PRELP and HSA coated (5 µg/ml; legend: 10 µg/ml), incubated with FHR1 (5 or 10 µg/ml); detected with goat anti-human FH; both purified
[15] = target: T3, Proline/arginine-rich end leucine-rich repeat protein; test: as above
Fibromodulin [16] = target: T4, Fibromodulin; test: as above

| Substance | binding [1] | binding [9] | binding [10] | binding [11] | also measured |
| --- | --- | --- | --- | --- | --- |
| Purified commercial properdin (from UniProt P27918 28-469) | no binding (tested: 20 µg/ml) |  |  |  |  |
| Purified human C3c (from UniProt P01024 23-667; P01024 749-954; P01024 1321-1663) |  |  |  |  | binding [2]: no binding (tested: 20 µg/ml) |
| Purified human factor H (from UniProt P08603 19-1231) |  |  |  |  | binding (Osteoadherin [3]): binds; binding [4]: binds; binding (Fibromodulin [5]): binds; binding (Osteoadherin [6]): binds; binding [7]: binds; binding (Fibromodulin [8]): binds |
| Purified properdin dimers (from UniProt P27918 28-469) | no binding (tested: 20 µg/ml) | no binding (tested: 20 µg/ml) | no binding (tested: 20 µg/ml) | no binding (tested: 20 µg/ml) |  |
| Purified properdin tetramers (from UniProt P27918 28-469) | no binding (tested: 20 µg/ml) | no binding (tested: 20 µg/ml) | no binding (tested: 20 µg/ml) | no binding (tested: 20 µg/ml) |  |
| Purified properdin trimers (from UniProt P27918 28-469) | no binding (tested: 20 µg/ml) | no binding (tested: 20 µg/ml) | no binding (tested: 20 µg/ml) | no binding (tested: 20 µg/ml) |  |
| Recombinant human factor H-related protein 1 (from UniProt Q03591 19-330) |  |  |  |  | binding (Osteoadherin [12]): binds; binding [13]: binds; binding (Osteoadherin [14]): binds; binding [15]: binds; binding (Fibromodulin [16]): binds |
